{"source": "patent US20210052528A1", "about": "“THE USE OF SGC ACTIVATORS AND SGC STIMULATORS FOR THE TREATMENT OF COGNITIVE IMPAIRMENT” (Bayer Aktiengesellschaft, priority 2018, published 2021)", "test_system": "male Wistar rats", "experiment": "Object Location Task (OLT), learning and memory improvement in vivo", "design": "species or system rat", "details": "1.0 mg/kg p.o. 30 min before T1, 24 h interval", "description": "The aim of the non-clinical studies was to test the effects of the compounds of formula (5) and (6) (sGC stimulators) and the sGC activators (compounds of formula (1) and (2)) on learning and memory improvement. Therefore, the well accepted Object Location Task (OLT) in rats was used. This task allows the assessment of acquisition, consolidation and retrieval of (spatial) information into memory, and is derived from the Object Recognition Task (ORT) (e.g. Ennaceur and Delacour, 1988; Prickaerts et al., 1997).\nAll experimental procedures were approved by the local ethical committee of Maastricht University for animal experiments and met governmental guidelines. Twenty-four 3-4-months-old male Wistar rats (Charles River, Sulzfeld, Germany) were used (average body weight at the beginning of the study: cohort 1 (compounds of formula (5) and (6)): 292 g; cohort 2 (compound of formula (1) and (2)): 334 g). The animals were housed individually in a standard IVC cage system on sawdust bedding in an air-conditioned room (about 20° C.). They were kept under a reversed 12/12 h light/dark cycle (lights on from 19.00 to 07.00) and had free access to food and water. Rats were housed and tested in the same room. A radio, which was playing softly, provided background noise in the room. All testing was done between 09.00 and 17.00. […]", "data": [{"smiles": "COc1cc2c(cc1OC)C(=O)C(CC1CCN(Cc3ccccc3)CC1)C2", "note": "(centres unmarked) [donepezil, reference compound]", "values": [{"measurement": "memory performance, discrimination index (d2), compared with chance level (d2=0)", "setting": "one-sample t-test", "result": "improved memory"}, {"measurement": "memory performance, discrimination index (d2), compared to the vehicle condition", "setting": "one-way ANOVA, LSD t-tests", "result": "improved memory"}]}]}
